These results are taken from publication PMC11712038.

Amino acid sequences for entries named in this document (tags omitted). Residues count along the entry.
UniProt Q9Y6W8, residues 21-199: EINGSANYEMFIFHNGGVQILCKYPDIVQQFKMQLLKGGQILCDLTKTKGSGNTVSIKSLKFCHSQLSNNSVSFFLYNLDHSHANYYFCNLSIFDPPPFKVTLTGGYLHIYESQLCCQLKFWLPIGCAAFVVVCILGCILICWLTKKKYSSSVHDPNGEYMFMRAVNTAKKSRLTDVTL
UniProt P01009, residues 25-418: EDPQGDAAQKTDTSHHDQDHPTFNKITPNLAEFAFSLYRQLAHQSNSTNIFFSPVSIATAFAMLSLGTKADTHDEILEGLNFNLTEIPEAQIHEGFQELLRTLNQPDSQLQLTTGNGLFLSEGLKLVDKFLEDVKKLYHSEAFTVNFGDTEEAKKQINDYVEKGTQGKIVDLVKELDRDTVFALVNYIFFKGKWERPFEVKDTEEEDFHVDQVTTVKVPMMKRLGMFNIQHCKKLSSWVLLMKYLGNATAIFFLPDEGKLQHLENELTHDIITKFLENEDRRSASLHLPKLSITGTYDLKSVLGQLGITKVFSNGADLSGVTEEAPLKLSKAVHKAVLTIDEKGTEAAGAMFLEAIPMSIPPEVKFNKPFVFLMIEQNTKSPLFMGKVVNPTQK

These are yes or no findings as the source states them, for the method shown.

For this experiment, the target named is ICOS on primary human T cells (human (endogenous in primary CD4+ T cells and Tregs)) (UniProt Q9Y6W8). As to the kind of experiment: ELISA; CD4+ T cells incubated with biotinylated FH or biotinylated α1-AT for 2 hours at 37°C and lysed; lysates on plates coated with anti-ICOS; detection with streptavidin-HRP; only the binder purified.

As to “alpha-1 antitrypsin (α1-AT), purified from human plasma (from UniProt P01009 25-418)”, the binding entry is “no binding”.
